Experimental data as given in patent EP2363410A1.
Results are given in words; binding and its absence hold for the method and conditions named. Binding seen in cells or lysates may run through a third protein. Here binding means that the protein was enriched with, or labelled near, the bait; the list need not be complete. Sequences can lack the tags named with a protein.

By UniProt entry, the sequences of proteins in these tests, tags left out. Where a name states a change or a piece, a line headed by the entry shows the natural chain unless it says otherwise. Residues count along the entry.
UniProt P62258: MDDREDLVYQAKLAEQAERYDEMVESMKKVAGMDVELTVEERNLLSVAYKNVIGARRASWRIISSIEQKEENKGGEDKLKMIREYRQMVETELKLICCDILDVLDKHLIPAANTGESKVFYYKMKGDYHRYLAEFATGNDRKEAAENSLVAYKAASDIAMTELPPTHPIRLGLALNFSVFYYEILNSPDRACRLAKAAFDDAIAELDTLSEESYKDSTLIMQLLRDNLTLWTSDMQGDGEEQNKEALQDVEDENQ
UniProt P15531, residues 2-152: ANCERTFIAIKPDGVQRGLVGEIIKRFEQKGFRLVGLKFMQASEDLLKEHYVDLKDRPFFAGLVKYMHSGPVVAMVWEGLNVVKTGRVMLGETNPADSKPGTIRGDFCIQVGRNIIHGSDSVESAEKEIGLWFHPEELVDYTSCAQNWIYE
UniProt P08758, residues 2-320: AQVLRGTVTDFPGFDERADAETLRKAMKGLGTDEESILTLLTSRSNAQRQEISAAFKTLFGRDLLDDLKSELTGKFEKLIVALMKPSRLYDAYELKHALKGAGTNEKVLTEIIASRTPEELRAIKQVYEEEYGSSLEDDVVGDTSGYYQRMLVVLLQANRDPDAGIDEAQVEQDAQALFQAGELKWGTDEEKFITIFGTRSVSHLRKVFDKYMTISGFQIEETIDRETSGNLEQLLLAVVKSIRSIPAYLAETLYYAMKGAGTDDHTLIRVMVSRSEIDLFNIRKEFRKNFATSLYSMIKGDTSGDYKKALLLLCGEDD

Target: T1, Histidine-Tagged Primary Sequence of the MUC1 Growth Factor Receptor (His-var-PSMGFR) (human)
T1 sequence (peptide): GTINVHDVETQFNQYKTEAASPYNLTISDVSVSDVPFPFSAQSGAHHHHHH
Assay: pull-down from T47D lysate on His-var-PSMGFR NTA-Ni beads, gel band, mass spectrometry

| Substance | binding |
| --- | --- |
| 14-3-3 epsilon (from UniProt P62258 1-255) (ligand) | binds |
| Metastasis Inhibition Factor NM23 (from UniProt P15531 2-152) (ligand) | binds |
| human annexin V with Proline substitution by Thrionine (from UniProt P08758 2-320) | binds |
